Some of the results follow.
Test: Vibrio cholerae motility inhibitors, OD read-out (AID 588778)
Settings: measured here: bacterial viability at 10 ug/mL, stronger effect = higher value
Work on `Cc1cccc(C(=O)OC2CN3CCC2CC3)c1` (configuration not stated) yielded an inhibition of 0.51%.
In the case of `COc1ccc(OCC(=O)OC2CN3CCC2CC3)cc1` (configuration not stated), the inhibition is reported as 20%.
